{
  "sequences": {"note": "Sequences of proteins named here, by UniProt entry; tags and fusion partners are left off.", "UniProt Q96EB6": "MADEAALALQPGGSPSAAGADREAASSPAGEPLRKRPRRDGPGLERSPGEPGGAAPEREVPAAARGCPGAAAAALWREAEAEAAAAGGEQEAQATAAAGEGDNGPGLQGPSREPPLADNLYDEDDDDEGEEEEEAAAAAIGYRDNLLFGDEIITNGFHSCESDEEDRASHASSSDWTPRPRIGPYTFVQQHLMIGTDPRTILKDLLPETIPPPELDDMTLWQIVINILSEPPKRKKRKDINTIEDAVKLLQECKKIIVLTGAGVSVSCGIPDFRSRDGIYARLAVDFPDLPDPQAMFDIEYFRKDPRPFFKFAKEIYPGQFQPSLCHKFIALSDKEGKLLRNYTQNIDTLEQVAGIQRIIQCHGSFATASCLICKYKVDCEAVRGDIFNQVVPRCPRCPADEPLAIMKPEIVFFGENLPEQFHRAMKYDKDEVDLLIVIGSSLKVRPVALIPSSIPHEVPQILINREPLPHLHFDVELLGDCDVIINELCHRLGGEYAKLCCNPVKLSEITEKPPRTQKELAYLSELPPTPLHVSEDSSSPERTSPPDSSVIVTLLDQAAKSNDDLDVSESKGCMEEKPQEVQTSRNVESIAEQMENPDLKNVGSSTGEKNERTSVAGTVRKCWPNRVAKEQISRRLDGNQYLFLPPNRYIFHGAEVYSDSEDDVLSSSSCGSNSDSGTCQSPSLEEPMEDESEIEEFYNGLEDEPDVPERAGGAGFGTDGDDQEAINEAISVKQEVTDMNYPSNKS"},
  "source": "paper PMC8580993",
  "binders": {"B1": {"name": "myc-tagged USP22 (enzyme, UniProt Q9UPT9 1-525)", "chain": "MVSRPEPEGEAMDAELAVAPPGCSHLGSFKVDNWKQNLRAIYQCFVWSGTAEARKRKAKSCICHVCGVHLNRLHSCLYCVFFGCFTKKHIHEHAKAKRHNLAIDLMYGGIYCFLCQDYIYDKDMEIIAKEEQRKAWKMQGVGEKFSTWEPTKRELELLKHNPKRRKITSNCTIGLRGLINLGNTCFMNCIVQALTHTPLLRDFFLSDRHRCEMQSPSSCLVCEMSSLFQEFYSGHRSPHIPYKLLHLVWTHARHLAGYEQQDAHEFLIAALDVLHRHCKGDDNGKKANNPNHCNCIIDQIFTGGLQSDVTCQVCHGVSTTIDPFWDISLDLPGSSTPFWPLSPGSEGNVVNGESHVSGTTTLTDCLRRFTRPEHLGSSAKIKCSGCHSYQESTKQLTMKKLPIVACFHLKRFEHSAKLRRKITTYVSFPLELDMTPFMASSKESRMNGQYQQPTDSLNNDNKYSLFAVVNHQGTLESGHYTSFIRQHKDQWFKCDDAIITKASIKDVLDSEGYLLFYHKQFLEYE"}},
  "biological_target": "Flag-tagged SIRT1 (UniProt Q96EB6)",
  "assay": "co-IP; hiPSC-CMs transfected with Flag-tagged SIRT1 and myc-tagged USP22 and sh-NC or sh-circ-SIRT1#1; lysate precipitated with anti-Flag plus A/G sepharose beads overnight at 4 °C; western blot for myc",
  "note": "No constants are given. Whether binding was seen depends on the method and setting. Binding seen in cells or lysates may run through a third protein. Some results given as binding are weak or reduced against the parent protein; the word gives no strength. Sequences can lack the tags named with a protein.",
  "data": [
    {"binder": "B1", "values": [
      {"measurement": "binding", "value": "binds"}
    ]}
  ]
}
